Test results published in PubChem BioAssay AID602313 (National Center for Advancing Translational Sciences (NCATS), 2012).
Screen size: about 390,000 compounds; about 760 (0.19%) were called active. Inconclusive results, whose numbers are uncertain, are shown with a selection of clear calls. Calls come from the whole dose curve; as a rule, active = well fitted inhibition curve with a large enough effect; inconclusive = small, poorly fitted or top-dose-only effect; inactive = flat fitted curve, though single readings scatter. Where the call is inconclusive, the potency comes from a doubtful curve fit.
Potency is the fitted concentration of half-maximal effect.

Experiment: qHTS for Inhibitors of Vif-A3F Interactions: qHTS; note: nearly all actives have a fitted effect of over 65% in size
Details: HeLa A3F-eYFP + Vif (tagged APOBEC3F with the HIV-1 protein that degrades it), YFP fluorescence increase; series mostly up to 46.1 µM
Outline: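 HeLa cells stably expressing Vif plus C-terminally eYFP-tagged A3F were seeded, incubated overnight at 37 deg C, dosed with compound, incubated overnight again at 37 deg C. Yellow fluorescence (Ex 488/Em 500-530) reported blocked Vif-mediated A3F-eYFP degradation.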
In the case of `Cc1cc2nc(-c3ccc(SCC(=O)Nc4nccs4)nc3)[nH]c2cc1C`, the Potency is reported as inconclusive: 8.91 µM [inhibitor, partial curve, poor fit].
With `Cc1ccc(C)c(NC(=O)CN(C)C(=O)Cn2c(=O)oc3ccccc32)c1` the Potency was inconclusive: 35.5 µM [inhibitor, single point].
In the case of `CC(=O)Nc1ccc2nc(NC(=O)c3ccco3)sc2c1`, the Potency is reported as “inactive”.
For `CCC(=O)NC(c1ccccc1OC)c1ccc2cccnc2c1O` (configuration not stated), the Potency was “inactive”.
With `COC(=O)Cn1c2ccccc2c2nc3ccccc3nc21` the Potency was inconclusive: 15.8 µM [inhibitor, partial curve, poor fit].
In the case of `Cc1ccc(CN(Cc2cccnc2)C(=S)Nc2cc(Cl)ccc2C)cc1`, the Potency is reported as inconclusive: 14.1 µM [inhibitor, partial curve, poor fit].
In the case of `O=C(CCN1CCN(c2ccccc2)CC1)NNC(=S)Nc1ccccc1`, the Potency is reported as inconclusive: 3.98 µM [inhibitor, partial curve, poor fit].
With `O=[N+]([O-])c1ccc(N2CCN(c3ccccc3)CC2)nc1` the Potency was “inactive”.
For `CCN(CC)c1ccc(CNc2nc3ccccc3n2CCN2CCCCC2)cc1`, the Potency was inconclusive: 11.2 µM [inhibitor, partial curve, poor fit].
With `COc1ccc(C[C@](C)(N)C(=O)O)cc1OC` the Potency was inconclusive: 11.2 µM [inhibitor, partial curve, poor fit].
For `CCN(CC)c1ccc(/C=N/NC(=S)NCc2ccccc2)c(O)c1`, the Potency was inconclusive: 15.8 µM [inhibitor, single point].
For `Cc1cccn2c(=O)c(/C=C(\C#N)c3nc4ccccc4n3C)c(Oc3ccc(Br)cc3)nc12`, the Potency was inconclusive: 35.5 µM [inhibitor, single point].
For `CCOc1ccc(Oc2cc(N)cc([N+](=O)[O-])c2)cc1`, the Potency was inconclusive: 28.2 µM [inhibitor, single point].
For `Cc1c(C(=O)OCC(O)=C(C#N)c2nc3ccccc3[nH]2)oc2ccc(Br)cc12`, the Potency was inconclusive: 3.55 µM [inhibitor, partial curve, poor fit].
With `CCCCCCCCn1c2c(c(=N)c3c1CCC3)CCCC2` the Potency was inconclusive: 12.6 µM [inhibitor, partial curve, poor fit].
For `Cc1ccc(NC(=S)NNC(=O)c2c(Cl)c(C)nn2C)cc1`, the Potency was inconclusive: 3.16 µM [inhibitor, partial curve, poor fit].
For `CC(C)CN(C(=O)COC(=O)c1ccccc1SCC(=O)NC1CCCCCC1)C1CCS(=O)(=O)C1` (configuration not stated), the Potency was inconclusive: 28.2 µM [inhibitor, single point].
With `CCOC(=O)c1nnn(-c2ccc([N+](=O)[O-])cc2[N+](=O)[O-])c1C` the Potency was “inactive”.
For `CCOC(=O)N1CCN(C(=S)NC(=O)c2c(-c3c(Cl)cccc3Cl)noc2C)CC1`, the Potency was inconclusive: 8.91 µM [inhibitor, partial curve, poor fit].
With `CCc1c(C)c2ccc3c(c2oc1=O)CN(Cc1ccccc1)CO3` the Potency was “inactive”.
For `Cc1ccnc(NC(=O)CNC(=O)c2ccc(Br)o2)c1`, the Potency was inconclusive: 5.62 µM [inhibitor, single point].
In the case of `Nc1cccc2c1C(=O)N(CCOc1ccc(F)cc1)C2=O`, the Potency is reported as inconclusive: 35.5 µM [inhibitor, single point].
For `CCN(CC)c1ccc2c(Cl)c(Br)c(=O)oc2c1`, the Potency was inconclusive: 3.55 µM [inhibitor, partial curve, poor fit].
For `CCOC(=O)Cn1c(=O)oc2cc(S(=O)(=O)N3CCN(c4ccc(Cl)cc4)CC3)ccc21`, the Potency was “inactive”.
In the case of `O=S(=O)(/N=C(/Nc1ccc(Cl)c(S(=O)(=O)Nc2ccccc2Cl)c1)c1ccc(F)cc1)c1ccccc1`, the Potency is reported as “inactive”.
For `Cc1ccc(S(=O)(=O)N2CCC(C(=O)OCC(=O)NCc3cccc(Cl)c3)CC2)cc1C`, the Potency was inconclusive: 14.1 µM [inhibitor, single point].
With `CCC(CO)[n+]1c(C)cc(/C=C2\Sc3ccccc3N2Cc2ccccc2)cc1C` (configuration not stated) the Potency was active: 11.2 µM.
In the case of `COCCCNc1nc2ccccc2nc1NS(=O)(=O)c1cccc(Cl)c1`, the Potency is reported as inconclusive: 15.8 µM [inhibitor, partial curve, poor fit].
For `COc1ccc(Br)cc1/C=N/NC(=O)CN1CCN(Cc2ccccc2)CC1`, the Potency was inconclusive: 3.55 µM [inhibitor, single point].
With `CC1=C(C(=O)Nc2ccc(CC(=O)NCc3ccc(OC(C)C)cc3)cc2)SCCO1` the Potency was “inactive”.
With `CC(C)N1C/C(=C/c2ccsc2)C(=O)/C(=C/c2ccsc2)C1` the Potency was inconclusive: 3.16 µM [inhibitor, single point].
In the case of `NC1=NC(=O)/C(=C\c2ccc(-c3ccc(Cl)cc3)o2)S1`, the Potency is reported as inconclusive: 12.6 µM [inhibitor, partial curve, poor fit].
With `Cc1nn(CCCC(=O)Nc2ccccc2C(F)(F)F)c(=O)c2c1sc1ccccc12` the Potency was “inactive”.
For `COc1ccccc1-c1noc(-c2ccc(N3CCN(c4ccccc4)CC3)c([N+](=O)[O-])c2)n1`, the Potency was “inactive”.
In the case of `COc1ccc(NC(=O)CN(C)C(=O)c2cccc(S(=O)(=O)N3CC4(C)CC3CC(C)(C)C4)c2)cc1` (configuration not stated), the Potency is reported as inconclusive: 6.31 µM [inhibitor, single point].
For `CC1CCN(S(=O)(=O)c2ccc(NC(=O)C3CC(=O)N(c4ccccc4)C3)cc2)CC1` (configuration not stated), the Potency was inconclusive: 11.2 µM [inhibitor, partial curve, poor fit].
In the case of `COc1ccc(N(C(=O)Cc2cccs2)C(C(=O)NC2CCCC2)c2ccncc2)cc1` (configuration not stated), the Potency is reported as “inactive”.
For `COc1cc(/C=C/C(O)=C/C(=O)/C=C/c2ccc(O)cc2)ccc1O`, the Potency was inconclusive: 31.6 µM [inhibitor, single point].
With `COCc1cc(C)n(CC(=O)Nc2ccc(NC(C)=O)cc2)c(=O)c1C#N` the Potency was “inactive”.
In the case of `O=S(=O)(Nc1ccccc1N1CCCCC1)c1cccs1`, the Potency is reported as inconclusive: 20 µM [inhibitor, single point].
With `COc1ccc(-n2ccc(=O)c3c2CCCC3=O)cc1` the Potency was “inactive”.
In the case of `O=C(Nc1nc(-c2ccccn2)cs1)Nc1ccc(F)cc1F`, the Potency is reported as inconclusive: 5.62 µM [inhibitor, single point].
For `CCCCCCNC(=O)C(C#N)c1nc2ccccc2nc1N1CCOCC1` (configuration not stated), the Potency was inconclusive: 14.1 µM [inhibitor, partial curve, poor fit].
In the case of `CC(C)c1ccc(/C=N/n2c(COc3ccccc3)n[nH]c2=S)cc1`, the Potency is reported as “inactive”.
For `O=C(c1ccco1)N1CCN(c2nc3ccccc3n3nnnc23)CC1`, the Potency was inconclusive: 12.6 µM [inhibitor, partial curve, poor fit].
In the case of `CCCSc1ccc([C@@H]2[C@H]3C(=O)N(CC)C(=O)[C@H]3[C@]3(C(=O)OC)CCCCN23)cc1OC`, the Potency is reported as inconclusive: 15.8 µM [inhibitor, partial curve, poor fit].
For `C/C(=N\NC(=O)c1cc2ccccc2cc1O)c1cc2ccccc2o1`, the Potency was inconclusive: 28.2 µM [inhibitor, single point].
With `Cc1ccc(S(=O)(=O)Nc2ccc(S(=O)(=O)Nc3nccs3)cc2)cc1C` the Potency was “inactive”.
For `COc1ccccc1NC(=O)c1c(NCc2sccc2C)sc2c1CCCCC2`, the Potency was inconclusive: 12.6 µM [inhibitor, single point].
In the case of `COc1cccc(-c2onc3ccc(C(=O)/C=C/N(C)C)cc23)c1`, the Potency is reported as “inactive”.
With `COc1cccc(CC(=O)Nc2cc(S(=O)(=O)N3CCOCC3)ccc2OC)c1` the Potency was inconclusive: 15.8 µM [inhibitor, single point].
In the case of `Cc1ccc2nc(SCC(=O)c3c[nH]c4ccccc34)[nH]c2c1`, the Potency is reported as inconclusive: 28.2 µM [inhibitor, single point].
In the case of `COc1ccc(-n2sc3ccc(F)cc3c2=O)cc1`, the Potency is reported as inconclusive: 2.82 µM [inhibitor, partial curve, poor fit].
In the case of `CCOC(=O)N1CCN(c2nc3ccccc3nc2C(C#N)C(=O)NCCc2ccccc2)CC1` (configuration not stated), the Potency is reported as inconclusive: 31.6 µM [inhibitor, single point].
With `CCCN1CCc2c(sc3nc(SCC)n(-c4ccccc4)c(=O)c23)C1` the Potency was inconclusive: 22.4 µM [inhibitor, partial curve, poor fit].
For `CCOc1ccc(CCNC(=O)CSc2cc(=O)n(C)c3ccc(Cl)cc23)cc1OCC`, the Potency was inconclusive: 6.31 µM [inhibitor, single point].
With `Cc1ccc(OCC(O)Cn2c(=N)n(CCN3CCCCC3)c3ccccc32)cc1` (configuration not stated) the Potency was “inactive”.
In the case of `COc1c(C)cccc1C(=O)Nc1ccc(N2CCN(C(=O)c3ccccc3C)CC2)cc1`, the Potency is reported as “inactive”.
With `CC(=O)c1ccc(NC(=O)Cn2c(=O)n(Cc3ccco3)c(=O)c3sc4ccccc4c32)cc1` the Potency was “inactive”.
For `O=C(Cc1cccc2ccccc12)NC(=S)Nc1cccc(C(=O)O)c1`, the Potency was “inactive”.
In the case of `CC1=C/C(=N\NC(=S)NCc2ccccc2)CC1`, the Potency is reported as inconclusive: 7.08 µM [inhibitor, partial curve, poor fit].
With `O=C1C(N2CCOCC2)=Cc2cccc3cccc1c23` the Potency was inconclusive: 22.4 µM [inhibitor, single point].
For `CC(=O)c1c2c3c(c(Br)ccc3n(C)c1=O)C(=O)c1ccccc1-2`, the Potency was “inactive”.
In the case of `CC(COc1ccc(/C=C/c2ccccc2)cc1)[N+](C)(C)C` (configuration not stated), the Potency is reported as “inactive”.
In the case of `Cc1ccc(C)c(N2CCN(S(=O)(=O)c3cc4c(cc3C)NC(=O)CO4)CC2)c1`, the Potency is reported as inconclusive: 35.5 µM [inhibitor, single point].
With `CN1CCN(c2nc3ccccc3nc2NS(=O)(=O)c2ccc(Br)cc2)CC1` the Potency was active: 10 µM.
For `CN1CCN(c2cc3c(c4c2[nH]c2ccccc24)C(=O)CC(C)(C)C3)CC1`, the Potency was “inactive”.
